Results reported in PMC8771856.
No constants are given. Whether binding was seen depends on the method and setting. Binding seen in cells or lysates may run through a third protein. Here binding means that the protein was enriched with, or labelled near, the bait; the list need not be complete.

Protein sequences, listed by entry. Tags and fused reporters are not part of them.
UniProt P09874: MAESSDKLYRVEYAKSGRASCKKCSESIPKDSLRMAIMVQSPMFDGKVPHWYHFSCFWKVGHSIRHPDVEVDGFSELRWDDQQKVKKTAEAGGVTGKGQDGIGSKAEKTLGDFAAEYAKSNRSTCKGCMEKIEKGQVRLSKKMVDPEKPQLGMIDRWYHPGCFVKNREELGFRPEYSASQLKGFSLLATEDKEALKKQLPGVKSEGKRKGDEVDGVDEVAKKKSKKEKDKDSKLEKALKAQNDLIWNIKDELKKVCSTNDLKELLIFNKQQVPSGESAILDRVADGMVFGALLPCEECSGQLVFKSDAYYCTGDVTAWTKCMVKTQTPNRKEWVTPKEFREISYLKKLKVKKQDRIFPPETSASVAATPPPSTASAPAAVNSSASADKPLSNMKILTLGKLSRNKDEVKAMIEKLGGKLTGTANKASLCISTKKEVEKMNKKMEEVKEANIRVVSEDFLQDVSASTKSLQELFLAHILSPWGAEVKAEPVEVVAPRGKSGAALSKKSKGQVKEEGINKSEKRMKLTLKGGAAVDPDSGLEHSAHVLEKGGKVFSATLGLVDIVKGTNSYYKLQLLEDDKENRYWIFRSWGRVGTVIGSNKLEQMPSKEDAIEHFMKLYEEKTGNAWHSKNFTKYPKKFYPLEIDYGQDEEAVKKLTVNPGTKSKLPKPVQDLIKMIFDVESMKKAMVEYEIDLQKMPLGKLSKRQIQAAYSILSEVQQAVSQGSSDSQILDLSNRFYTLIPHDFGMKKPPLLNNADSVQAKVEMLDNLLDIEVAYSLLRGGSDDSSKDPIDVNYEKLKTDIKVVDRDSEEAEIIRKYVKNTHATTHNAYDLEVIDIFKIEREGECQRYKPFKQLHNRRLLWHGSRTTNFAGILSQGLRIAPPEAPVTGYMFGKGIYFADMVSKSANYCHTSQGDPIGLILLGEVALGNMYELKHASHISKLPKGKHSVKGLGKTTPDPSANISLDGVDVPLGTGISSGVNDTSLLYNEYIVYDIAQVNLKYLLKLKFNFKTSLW
UniProt P15311: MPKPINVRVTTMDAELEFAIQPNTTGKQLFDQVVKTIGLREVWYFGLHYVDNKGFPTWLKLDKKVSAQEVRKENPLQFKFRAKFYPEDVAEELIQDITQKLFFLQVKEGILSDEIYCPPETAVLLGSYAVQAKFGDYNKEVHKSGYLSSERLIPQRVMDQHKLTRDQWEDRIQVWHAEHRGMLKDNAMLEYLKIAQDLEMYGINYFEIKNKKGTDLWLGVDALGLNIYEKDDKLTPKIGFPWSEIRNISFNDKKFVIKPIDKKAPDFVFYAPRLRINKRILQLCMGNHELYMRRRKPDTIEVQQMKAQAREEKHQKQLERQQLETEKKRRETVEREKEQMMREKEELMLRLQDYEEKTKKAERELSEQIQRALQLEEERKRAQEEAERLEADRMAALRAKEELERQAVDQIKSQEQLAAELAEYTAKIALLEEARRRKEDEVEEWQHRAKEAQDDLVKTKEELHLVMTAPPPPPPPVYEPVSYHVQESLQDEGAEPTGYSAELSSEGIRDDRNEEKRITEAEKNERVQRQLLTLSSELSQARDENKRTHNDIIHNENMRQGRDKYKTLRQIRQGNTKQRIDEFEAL

How the values were obtained:
[1] = biological target: Human recombinant his-tagged PARP1 protein (human) (UniProt P09874); test: affinity purification with mass spectrometry; his-tagged PARP1 held on Ni-NTA magnetic agarose beads, incubated overnight in the cold room with whole proteins of 143B cells; SDS-PAGE, silver staining, band at about 80 kDa analysed by mass spectrometry; his-tagged HSA as control; only the target purified
[2] = biological target: Poly (ADP-ribose) polymerase 1 (PARP1), endogenous in 143B cells (human (endogenous in 143B)) (UniProt P09874); test: affinity purification with mass spectrometry; co-IP from 143B lysate with anti-PARP1 antibody (IgG as control), protein A/G magnetic beads; SDS-PAGE, silver staining, band at about 80 kDa analysed by mass spectrometry

- binding [1]: binds
- binding [2]: binds
Substance: Ezrin, endogenous in 143B cells (from UniProt P15311 1-586)
